Consider 1 sequence from publication PMC5996148.

The chains behind the UniProt entries cited, without tags or fusion partners. Where a name states a change or a piece, a line headed by the entry shows the natural chain unless it says otherwise.
UniProt P31941: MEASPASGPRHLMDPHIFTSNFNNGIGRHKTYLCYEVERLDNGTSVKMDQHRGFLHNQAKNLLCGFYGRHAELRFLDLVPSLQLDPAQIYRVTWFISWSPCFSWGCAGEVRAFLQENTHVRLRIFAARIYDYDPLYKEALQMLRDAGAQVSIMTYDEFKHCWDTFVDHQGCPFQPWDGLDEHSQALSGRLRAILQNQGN

Values joined by “and” are separate entries in the source; they are usually repeats but may differ in a detail not shown here. Equal values may be shown once. The list shows a part of the results. For some assays here: The source does not settle which construct or isoform was used.

Among the test systems are ANXA1 (human); ANXA5 (human); ANXA6 (human); ANXA7 (human); ANXA9 (human); AP4M1 (human); APBA2BP (human); APH1A (human); APIP (human); APITD1 (human); APLP2 (human); APOA1 (human); APOA1BP (human); APOA2 (human); APOC2 (human); APOH (human).
Holding throughout (assay): protein microarray (ProtoArray v5.0), streptavidin-Alexa Fluor 647
What all share (conditions): 3'-biotin; 20 mM Tris (pH 7.5), 5 mM MgCl2, 100 mM KCl, 0.1% Tween-20, A/T-rich and random oligonucleotide blockers; temperature not stated; high values mean tight binding

Test [1] concerns AP-2 complex subunit sigma-1 (human).
In test [2] the test system is AP-3 complex subunit sigma-1 (human).
For another test, the target named is T1, APBB1IP (UniProt Q7Z5R6).
T1 sequence: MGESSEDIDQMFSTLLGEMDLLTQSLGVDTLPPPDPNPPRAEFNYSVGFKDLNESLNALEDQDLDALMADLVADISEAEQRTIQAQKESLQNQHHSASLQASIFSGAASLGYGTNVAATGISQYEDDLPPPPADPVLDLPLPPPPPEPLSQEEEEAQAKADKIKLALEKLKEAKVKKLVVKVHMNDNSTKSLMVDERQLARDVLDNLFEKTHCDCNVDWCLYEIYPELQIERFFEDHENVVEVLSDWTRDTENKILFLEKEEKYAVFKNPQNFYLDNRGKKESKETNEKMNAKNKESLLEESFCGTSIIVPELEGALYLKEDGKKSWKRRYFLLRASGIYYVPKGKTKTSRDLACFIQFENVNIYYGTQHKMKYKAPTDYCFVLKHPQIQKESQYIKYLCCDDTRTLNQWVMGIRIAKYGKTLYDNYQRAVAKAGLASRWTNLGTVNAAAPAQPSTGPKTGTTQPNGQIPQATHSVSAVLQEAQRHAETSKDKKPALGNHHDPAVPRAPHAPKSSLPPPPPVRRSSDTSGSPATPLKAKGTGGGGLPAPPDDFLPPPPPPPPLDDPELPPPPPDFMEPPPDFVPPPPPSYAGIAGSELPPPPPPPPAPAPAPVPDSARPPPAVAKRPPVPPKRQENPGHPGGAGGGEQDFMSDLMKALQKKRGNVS

A further test has as its target APOBEC3A (UniProt P31941).

For the sequence “GGGAGGCTGAGGCAGG [G4-1 biotinylated (PQS2)]”, the binding signal is -0.33 z-score in the test on ANXA1 (human); -0.308 z-score with ANXA5 (human); -0.325 z-score in the test on ANXA6 (human); -0.33 z-score in the test on ANXA7 (human); -0.277 z-score in the test on ANXA9 (human); -0.277 z-score in test [1]. For the same sequence, the binding signal is -0.307 z-score in test [2]; -0.271 z-score with AP4M1 (human); -0.335 z-score in the test with APBA2BP (human); -0.341 z-score with APBB1IP; -0.303 z-score in the test on APH1A (human); -0.353 z-score and -0.346 z-score and -0.339 z-score in the test on APIP (human). The binding signal is -0.334 z-score with APITD1 (human); -0.329 z-score in the test on APLP2 (human); -0.369 z-score in the test on APOA1 (human); -0.32 z-score in the test on APOA1BP (human); -0.359 z-score with APOA2 (human); -0.336 z-score in the test with APOBEC3A. The binding signal in the test on APOC2 (human) was -0.346 z-score; in the test with APOH (human), -0.325 z-score.
